Reference: patent publication US9095138B2, “Isoxazoline insecticides” (E.I. du Pont de Nemours and Company, priority 2007, dated 2015)
Some entries share one result that the patent states for a list of compounds. At least one structure is not confirmed: it was looked up by name or label, or the drawing left a doubt.

Experiments:
Type in all cases: in vivo
[1] = tested on: potato leafhopper (Empoasca fabae); test: Test C: control of potato leafhopper on Soleil bean plant, contact and/or systemic; details: adults, assessed after 6 days, replicated three times
[2] = tested on: corn planthopper (Peregrinus maidis); test: Test D: control of corn planthopper on maize plant, contact and/or systemic; details: sprayed at 250 ppm; nymphs; assessed after 6 days; replicated three times
[3] = tested on: green peach aphid (Myzus persicae); test: Test F: control of green peach aphid on radish plant, contact and/or systemic; details: sprayed at 250 ppm; assessed after 6 days; replicated three times
[4] = tested on: cotton melon aphid (Aphis gossypii); test: Test G: control of cotton melon aphid on cotton plant, contact and/or systemic; details: sprayed at 250 ppm; replicated three times
[5] = tested on: cat flea (Ctenocephalides felis); test: Test I: control of cat flea on orally dosed CD-1 mouse; details: mouse orally dosed 10 mg/kg; fleas applied 2 hours after dosing; mortality 48 hours after flea application
[6] = tested on: cat flea (Ctenocephalides felis Bouche); test: Test J: control of cat flea, treated filter paper contact test; details: 20 μL of 500 ppm solution on filter paper; adult fleas; mortality 48 hours later
[7] = tested on: silverleaf whitefly (Bemisia tabaci); test: Test H: control of silverleaf whitefly on cotton plant; details: sprayed at 250 ppm; 2nd and 3rd instar nymphs; counted after 6 days; replicated three times
[8] = tested on: relapsing fever tick (Ornithodoros turicata); test: Test K: control of relapsing fever tick feeding on treated bovine blood through membrane; details: 30 ppm in bovine blood; nymphs fed until engorged; mortality 48 hours later

Structure (SMILES)	control efficacy (mortality): very good to excellent levels ([1]; sprayed at 50 ppm)	control efficacy (mortality): very good to excellent levels ([1]; sprayed at 250 ppm)	mortality [2]	mortality [3]	mortality [4]	flea mortality [5]	flea mortality [6]	mortality [7]	tick mortality [8]
C[C@@H](NC(=O)c1ccc(C2=NOC(c3cc(Cl)cc(Cl)c3)(C(F)(F)F)C2)c2ccccc12)C(=O)NC1CC1 (some centres unmarked) [Compound 53]	≥ 80%	≥ 80%	at least 80%	at least 80%	at least 80%				
C[C@@H](NC(=O)c1ccc(C2=NOC(c3cc(C(F)(F)F)cc(C(F)(F)F)c3)(C(F)(F)F)C2)c2ccccc12)C(N)=O (some centres unmarked) [Compound 65]	≥ 80%	≥ 80%		at least 80%	at least 80%	≥ 50%	≥ 50%		
O=C(CNC(=O)c1ccc(C2=NOC(c3cc(C(F)(F)F)cc(C(F)(F)F)c3)(C(F)(F)F)C2)c2ccccc12)NCC1CC1 (centres unmarked) [Compound 71]	≥ 80%	≥ 80%		at least 80%	at least 80%	≥ 50%			
CC(C)[C@@H](NC(=O)c1ccc(C2=NOC(c3cc(C(F)(F)F)cc(C(F)(F)F)c3)(C(F)(F)F)C2)c2ccccc12)C(=O)O (some centres unmarked) [Compound 39]	≥ 80%							at least 80%	
CC[C@@H](NC(=O)c1ccc(C2=NOC(c3cc(Cl)cc(C(F)(F)F)c3)(C(F)(F)F)C2)c2ccccc12)C(N)=O (some centres unmarked) [Compound 86]	≥ 80%		at least 80%	at least 80%				at least 80%	
C[C@@H](NC(=O)c1ccc(C2=NOC(c3cc(Cl)cc(C(F)(F)F)c3)(C(F)(F)F)C2)c2ccccc12)C(=O)NCC1CC1 (some centres unmarked) [Compound 73]	≥ 80%	≥ 80%		at least 80%		≥ 50%		at least 80%	
CC(NC(=O)c1ccc(C2=NOC(c3cc(Cl)cc(C(F)(F)F)c3)(C(F)(F)F)C2)c2ccccc12)C(=O)NC1CC1 (centres unmarked) [Compound 78]	≥ 80%	≥ 80%	at least 80%	at least 80%	at least 80%	≥ 50%			
O=C(CNC(=O)c1ccc(C2=NOC(c3cc(Cl)cc(Cl)c3)(C(F)(F)F)C2)c2ccccc12)NCC1CC1 (centres unmarked) [Compound 44]	≥ 80%	≥ 80%		at least 80%		≥ 50%	≥ 50%		≥ 50%
O=C(CNC(=O)c1ccc(C2=NOC(c3cc(Cl)cc(C(F)(F)F)c3)(C(F)(F)F)C2)c2ccccc12)NCC1CC1 (centres unmarked) [Compound 76]	≥ 80%	≥ 80%		at least 80%		≥ 50%		at least 80%	
CSCCNC(=O)CNC(=O)c1ccc(C2=NOC(c3cc(Cl)cc(Cl)c3)(C(F)(F)F)C2)c2ccccc12 (centres unmarked) [Compound 48]	≥ 80%	≥ 80%							≥ 50%
CC(C)(NC(=O)c1ccc(C2=NOC(c3cc(Cl)cc(Cl)c3)(C(F)(F)F)C2)c2ccccc12)C(=O)NCC1CC1 (centres unmarked) [Compound 43]	≥ 80%	≥ 80%		at least 80%		≥ 50%	≥ 50%		≥ 50%
C[C@@H](NC(=O)c1ccc(C2=NOC(c3cc(Cl)cc(C(F)(F)F)c3)(C(F)(F)F)C2)c2ccccc12)C(N)=O (some centres unmarked) [Compound 74]	≥ 80%	≥ 80%	at least 80%	at least 80%	at least 80%	≥ 50%			
C[C@@H](NC(=O)c1ccc(C2=NOC(c3cc(Br)cc(C(F)(F)F)c3)(C(F)(F)F)C2)c2ccccc12)C(N)=O (some centres unmarked) [Compound 83]	≥ 80%		at least 80%	at least 80%	at least 80%	≥ 50%			
O=C(CNC(=O)c1ccc(C2=NOC(c3cc(Cl)cc(OC(F)(F)F)c3)(C(F)(F)F)C2)c2ccccc12)NC1CC1 (centres unmarked) [Compound 82]	≥ 80%			at least 80%	at least 80%	≥ 50%			
O=C(NCC1CCCO1)c1ccc(C2=NOC(c3cc(C(F)(F)F)cc(C(F)(F)F)c3)(C(F)(F)F)C2)c2ccccc12 (centres unmarked) [Compound 27]	≥ 80%	≥ 80%	at least 80%	at least 80%	at least 80%			at least 80%	
O=C(CNC(=O)c1ccc(C2=NOC(c3cc(Cl)cc(Cl)c3)(C(F)(F)F)C2)c2ccccc12)NCc1ccccn1 (centres unmarked) [Compound 45]	≥ 80%	≥ 80%							≥ 50%
C[C@@H](NC(=O)c1ccc(C2=NOC(c3cc(Cl)cc(C(F)(F)F)c3)(C(F)(F)F)C2)c2ccccc12)C(=O)NC1CC1 (some centres unmarked) [Compound 72]	≥ 80%	≥ 80%	at least 80%	at least 80%	at least 80%	≥ 50%			
O=C(NCC(=O)N1CCCC1C(F)(F)F)c1ccc(C2=NOC(c3cc(Cl)cc(Cl)c3)(C(F)(F)F)C2)c2ccccc12 (centres unmarked) [Compound 91]	≥ 80%	≥ 80%	at least 80%					at least 80%	
COCCNC(=O)CNC(=O)c1ccc(C2=NOC(c3cc(Cl)cc(Cl)c3)(C(F)(F)F)C2)c2ccccc12 (centres unmarked) [Compound 47]		≥ 80%		at least 80%		≥ 50%	≥ 50%		≥ 50%
O=C(NC(C(=O)O)c1ccccc1)c1ccc(C2=NOC(c3cc(Cl)cc(Cl)c3)(C(F)(F)F)C2)c2ccccc12 (mixture of isomers) [Compound 5]	≥ 80%	≥ 80%						at least 80%	
